{
  "source": "patent US20060003988A1",
  "about": "“Compounds capable of inhibiting immunocyte-related allergic immune reactions” (priority 2002, published 2006)",
  "tested_on": "T cells",
  "note": "Some entries share one result that the patent states for a list of compounds.",
  "data": [
    {"smiles": "CC(C)(C(=O)O)c1ccc(C(=O)CCCN2CCC(OC(c3ccccc3)c3ccccc3)CC2)cc1", "note": "[carebastine, 4-[4-[4-(di-phenylmethoxy)-1-piperidinyl]-1-oxobutyl]-α, α-di-methylbenzeneacetic acid]", "values": [
      {"measurement": "T cell survival rate", "result": "≥ 95", "unit": "%"}
    ]}
  ]
}
